Reference: PubChem BioAssay AID720505 (Drosophila RNAi Screening Center, 2013)
In all, the deposit lists about 20,000 reagents; below is an unselected part of those with a known target gene and a result. Of all reagents, about 2,100 (10%) were called active. 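Raw plate signals without normalisation; calls rest on control-based scores that were not deposited; replicate 2 separates called from uncalled poorly.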 Reagents against one gene are numbered here. A plus sign joins genes that one reagent is predicted to hit. Reagent sequences are not shown. The record does not give: the amount of reagent, the time to read-out.

- Test: 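Knock-downs that reduce calcium influx once internal stores are emptied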 (primary screen)
- System: Drosophila S2R+ cells
- Reagents: long dsRNA against Drosophila genes
- Treatment: thapsigargin (2 µM) in calcium-free buffer to empty internal stores, then 2 mM calcium added back
- Read-out: 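Stores emptied by 2 µM thapsigargin without calcium, then 2 mM calcium re-added; fluo-4 fluorescence followed by FLIPR in 384-well plates, per-well averaged endpoint, raw; two screen passes, some wells retested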
- Direction: calcium signal and retest calcium signal: higher = more calcium entry after store depletion
- Rule for the call: 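Knock-downs counted as hits when calcium entry dropped relative to STIM1 positive and Rho1 negative controls present on each plate; roughly 1500 genes called, with reductions of differing size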
- Calls: active = called as lowering calcium entry; inactive = not called

| predicted target | reagent | calcium signal, replicate 1 | calcium signal, replicate 2 | retest calcium signal, replicate 1 | retest calcium signal, replicate 2 | Outcome |
| --- | --- | --- | --- | --- | --- | --- |
| CG11927 | 1 | 89.8 | 155 | – | – | inactive |
| CG42788 | 1 | 153 | 230 | – | – | inactive |
| CG42788 | 2 | 131 | 226 | – | – | inactive |
| CG42788 | 3 | 144 | 189 | – | – | inactive |
| Ncc69 | 1 | 102 | 127 | – | – | inactive |
| Ncc69 | 2 | 85.1 | 55.8 | – | – | inactive |
| CG33523 | 1 | 97.7 | 78.2 | – | – | inactive |
| CG33523 | 2 | 83.6 | 225 | – | – | inactive |
| Utx | 1 | 205 | 136 | – | – | inactive |
| Pabp2 | 1 | 61.5 | 62.5 | – | – | active |
| 2mit | 1 | 103 | 127 | – | – | inactive |
| 2mit | 2 | 116 | 119 | – | – | inactive |
| CG5439 | 1 | 98.2 | 118 | – | – | inactive |
| TpnC25D | 1 | 182 | 98 | – | – | inactive |
| GramD1B | 1 | 123 | 106 | – | – | inactive |
| GramD1B | 2 | 138 | 176 | – | – | inactive |
| Ugt37B1 | 1 | 61.7 | 169 | – | – | active |
| CG13170 | 1 | 88.1 | 112 | – | – | inactive |
| wapl | 1 | 125 | 113 | – | – | inactive |
| Cdc23 | 1 | 109 | 90.2 | – | – | inactive |
| Ir21a + asRNA:CR43609 | 1 | 157 | 176 | – | – | inactive |
| CG10274 | 1 | 120 | 138 | – | – | inactive |
| Slmap | 1 | 141 | 77 | – | – | inactive |
| geko | 1 | 89.5 | 117 | – | – | inactive |
| geko | 2 | 84.4 | 92.2 | – | – | active |
| CG43394 | 1 | 163 | 94.1 | – | – | inactive |
| CG43394 | 2 | 98.7 | 172 | – | – | inactive |
| Prosalpha2 | 1 | 72.6 | 109 | – | – | active |
| SmydA-3 | 1 | 158 | 171 | – | – | inactive |
| SmydA-3 | 2 | 131 | 191 | – | – | inactive |
| mRpL23 | 1 | 115 | 93.2 | – | – | inactive |
| CG18063 | 1 | 129 | 130 | – | – | inactive |
| CG8838 | 1 | 139 | 203 | – | – | inactive |
| Mics1 | 1 | 107 | 177 | – | – | inactive |
| tay | 1 | 139 | 129 | – | – | inactive |
| CG3368 | 1 | 114 | 119 | – | – | inactive |
| Smyd4-2 | 1 | 116 | 100 | – | – | inactive |
| Rbsn-5 | 1 | 118 | 158 | – | – | inactive |
| Dcr-1 | 1 | 189 | 257 | – | – | inactive |
| CG32301 | 1 | 97.9 | 107 | – | – | inactive |
| CG14540 | 1 | 280 | 144 | – | – | inactive |
| Taf8 | 1 | 96.6 | 123 | – | – | inactive |
| CG7707 | 1 | 83.4 | 138 | – | – | inactive |
| bsf | 1 | 85.7 | 117 | – | – | inactive |
| CG2938 | 1 | 117 | 137 | – | – | inactive |
| Eh | 1 | 166 | 129 | – | – | inactive |
| obst-G | 1 | 119 | 112 | – | – | inactive |
| TP53INP | 1 | 104 | 118 | 175 | 160 | inactive |
| TP53INP | 2 | 68.6 | 128 | – | – | inactive |
| wol | 1 | 112 | 305 | – | – | inactive |
| CG33172 | 1 | 164 | 83.2 | – | – | inactive |
| CG30393 | 1 | 96.5 | 93.9 | – | – | inactive |
| CG4291 | 1 | 133 | 188 | – | – | inactive |
| CG31643 | 1 | 98.7 | 96.7 | – | – | inactive |
| CG1628 | 1 | 132 | 113 | – | – | inactive |
| Lk6 | 1 | 157 | 136 | – | – | inactive |
| E(spl)m3-HLH | 1 | 177 | 134 | – | – | inactive |
| E(spl)m3-HLH | 2 | 92.3 | 82.2 | – | – | inactive |
| CCDC151 | 1 | 65 | 50 | – | – | active |
| CG14221 | 1 | 64.1 | 227 | – | – | active |
| CG2887 | 1 | 78.8 | 97.7 | – | – | inactive |
| ND1 (retired record) | 1 | 188 | 88.8 | – | – | inactive |
| Dad1 | 1 | 160 | 177 | – | – | inactive |
| CG30154 | 1 | 62.4 | 117 | – | – | active |
| CG32795 | 1 | 121 | 188 | – | – | inactive |
| CG32795 | 2 | 111 | 161 | – | – | inactive |
| UQCR-11L | 1 | 86.9 | 264 | – | – | inactive |
| Non2 | 1 | 66.2 | 115 | – | – | active |
| CG17032 | 1 | 107 | 148 | – | – | inactive |
| CG10654 | 1 | 79.2 | 66.5 | – | – | inactive |
| ms(3)K81 | 1 | 120 | 82.4 | – | – | inactive |
| CG8728 | 1 | 136 | 78.7 | – | – | inactive |
| Lhr | 1 | 166 | 105 | – | – | inactive |
| CG5013 | 1 | 125 | 156 | – | – | inactive |
| CG5447 | 1 | 232 | 125 | – | – | inactive |
| CG4362 | 1 | 72.8 | 97 | – | – | active |
| dgt6 | 1 | 81.4 | 88.3 | – | – | inactive |
| Mys45A | 1 | 160 | 117 | – | – | inactive |
| CG6978 | 1 | 235 | 96.4 | – | – | inactive |
| Asator | 1 | 122 | 138 | – | – | inactive |
| CG11570 | 1 | 124 | 119 | – | – | inactive |
| CG42269 | 1 | 53.8 | 53 | – | – | active |
| CG42269 | 2 | 73.8 | 71.7 | – | – | inactive |
